Test [1] concerns the target AGL6, MADS-box transcription factor (A. thaliana) (UniProt P29386). Put plainly: two-hybrid; GAL4-activation (AD) and GAL4-DNA binding (BD) domains fused to the test proteins; growth on -L-W-H-A or -L-W-H + 10 mM 3-AT, scored after 5 days at 28 °C; Matchmaker Gold and DUALhybrid systems named.
Test [2] has as its target suppressor of overexpression of CO 1 (SOC1), MADS-box transcription factor (A. thaliana) (UniProt O64645). The description is as above.

By UniProt entry, the sequences of proteins in these tests, tags left out.
UniProt P29386: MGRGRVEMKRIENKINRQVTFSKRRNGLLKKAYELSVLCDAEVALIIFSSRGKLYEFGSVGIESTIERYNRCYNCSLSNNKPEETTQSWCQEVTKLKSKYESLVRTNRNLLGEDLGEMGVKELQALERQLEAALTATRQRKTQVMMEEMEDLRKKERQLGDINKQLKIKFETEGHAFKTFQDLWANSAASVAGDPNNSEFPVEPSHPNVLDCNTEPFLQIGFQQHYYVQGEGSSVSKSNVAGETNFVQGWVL
UniProt O64645: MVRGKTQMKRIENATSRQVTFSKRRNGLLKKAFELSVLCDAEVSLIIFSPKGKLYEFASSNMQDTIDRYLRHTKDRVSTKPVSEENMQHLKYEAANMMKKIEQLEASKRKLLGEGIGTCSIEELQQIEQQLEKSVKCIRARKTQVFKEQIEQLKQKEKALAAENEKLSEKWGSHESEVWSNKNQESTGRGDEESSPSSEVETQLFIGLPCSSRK
UniProt Q9FVC1: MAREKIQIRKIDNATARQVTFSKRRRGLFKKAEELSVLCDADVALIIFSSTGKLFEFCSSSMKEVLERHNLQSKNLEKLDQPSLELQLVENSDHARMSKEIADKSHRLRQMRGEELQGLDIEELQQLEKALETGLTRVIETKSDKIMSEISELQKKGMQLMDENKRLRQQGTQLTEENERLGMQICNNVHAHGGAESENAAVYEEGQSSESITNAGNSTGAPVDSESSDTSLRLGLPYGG

Results are given in words; binding and its absence hold for the method and conditions named. Some results given as binding are weak or reduced against the parent protein; the word gives no strength.

As to “short vegetative phase (SVP), MADS-box transcription factor (from UniProt Q9FVC1 1-240)”, the binding entry in test [1] and in test [2] was “binds” throughout.

Source of the values: article PMC11706604.
